# Results taken from patent US12535491B2, “Vaccine comprising protein-targeted (PT) extracellular DNA isolated from bacterial matrix” (priority 2018, dated 2026).
# Tested on: heat-resistant proteins of human plasma
# Assay: LC/MS of heat-resistant proteins in plasma after exposure to proteinase K and boiling
# Details: LC/MS; healthy human blood plasma after incubation for 30 minutes with Proteinase K, following heating for 100° C. for 5 minutes (probe_2)
row,Molecule,N-plasma + pK
1,"CERU_HUMAN (protein, UniProt P00450 20-1065, looked up) Ceruloplasmin: KEKHYYIGIIETTWDYASDHGEKKLISVDTEHSNIYLQNGPDRIGRLYKKALYLQYTDETFRTTIEKPVWLGFLGPIIKAETGDKVYVHLKNLASRPYTFHSHGITYYKEHEGAIYPDNTTDFQRADDKVYPGEQYTYMLLATEEQSPGEGDGNCVTRIYHSHIDAPKDIASGLIGPLIICKKDSLDKEKEKHIDREFVVMFSVVDENFSWYLEDNIKTYCSEPEKVDKDNEDFQESNRMYSVNGYTFGSLPGLSMCAEDRVKWYLFGMGNEVDVHAAFFHGQALTNKNYRIDTINLFPATLFDAYMVAQNPGEWMLSCQNLNHLKAGLQAFFQVQECNKSSSKDNIRGKHVRHYYIAAEEIIWNYAPSGIDIFTKENLTAPGSDSAVFFEQGTTRIGGSYKKLVYREYTDASFTNRKERGPEEEHLGILGPVIWAEVGDTIRVTFHNKGAYPLSIEPIGVRFNKNNEGTYYSPNYNPQSRSVPPSASHVAPTETFTYEWTVPKEVGPTNADPVCLAKMYYSAVEPTKDIFTGLIGPMKICKKGSLHANGRQKDVDKEFYLFPTVFDENESLLLEDNIRMFTTAPDQVDKEDEDFQESNKMHSMNGFMYGNQPGLTMCKGDSVVWYLFSAGNEADVHGIYFSGNTYLWRGERRDTANLFPQTSLTLHMWPDTEGTFNVECLTTDHYTGGMKQKYTVNQCRRQSEDSTFYLGERTYYIAAVEVEWDYSPQREWEKELHHLQEQNVSNAFLDKGEFYIGSKYKKVVYRQYTDSTFRVPVERKAEEEHLGILGPQLHADVGDKVKIIFKNMATRPYSIHAHGVQTESSTVTPTLPGETLTYVWKIPERSGAGTEDSACIPWAYYSTVDQVKDLYSGLIGPLIVCRRPYLKVFNPRRKLEFALLFLVFDENESWYLDDNIKTYSDHPEKVNKDDEEFIESNKMHAINGRMFGNLQGLTMHVGDEVNWYLMGMGNEIDLHTVHFHGHSFQYKHRGVYSSDVFDIFPGTYQTLEMFPRTPGIWLLHCHVTDHIHAGMETTYTVLQNEDTKSG",40
2,"VTDB_HUMAN (protein, UniProt P02774 17-474, looked up) Vitamin D-binding protein: LERGRDYEKNKVCKEFSHLGKEDFTSLSLVLYSRKFPSGTFEQVSQLVKEVVSLTEACCAEGADPDCYDTRTSALSAKSCESNSPFPVHPGTAECCTKEGLERKLCMAALKHQPQEFPTYVEPTNDEICEAFRKDPKEYANQFMWEYSTNYGQAPLSLLVSYTKSYLSMVGSCCTSASPTVCFLKERLQLKHLSLLTTLSNRVCSQYAAYGEKKSRLSNLIKLAQKVPTADLEDVLPLAEDITNILSKCCESASEDCMAKELPEHTVKLCDNLSTKNSKFEDCCQEKTAMDVFVCTYFMPAAQLPELPDVELPTNKDVCDPGNTKVMDKYTFELSRRTHLPEVFLSKVLEPTLKSLGECCDVEDSTTCFNAKGPLLKKELSSFIDKGQELCADYSENTFTEYKKKLAERLKAKLPDATPTELAKLVNKHSDFASNCCSINSPPLYCDSEIDAELKNIL",32
3,"IGHG2_HUMAN (protein, UniProt P01859 1-395, looked up) Immunoglobulin heavy constant …: ASTKGPSVFPLAPCSRSTSESTAALGCLVKDYFPEPVTVSWNSGALTSGVHTFPAVLQSSGLYSLSSVVTVPSSNFGTQTYTCNVDHKPSNTKVDKTVERKCCVECPPCPAPPVAGPSVFLFPPKPKDTLMISRTPEVTCVVVDVSHEDPEVQFNWYVDGVEVHNAKTKPREEQFNSTFRVVSVLTVVHQDWLNGKEYKCKVSNKGLPAPIEKTISKTKGQPREPQVYTLPPSREEMTKNQVSLTCLVKGFYPSDISVEWESNGQPENNYKTTPPMLDSDGSFFLYSKLTVDKSRWQQGNVFSCSVMHEALHNHYTQKSLSLSPELQLEESCAEAQDGELDGLWTTITIFITLFLLSVCYSATITFFKVKWIFSSVVDLKQTIVPDYRNMIRQGA",31
4,"IGHG3_HUMAN (protein, UniProt P01860 1-446, looked up) Immunoglobulin heavy constant …: ASTKGPSVFPLAPCSRSTSGGTAALGCLVKDYFPEPVTVSWNSGALTSGVHTFPAVLQSSGLYSLSSVVTVPSSSLGTQTYTCNVNHKPSNTKVDKRVELKTPLGDTTHTCPRCPEPKSCDTPPPCPRCPEPKSCDTPPPCPRCPEPKSCDTPPPCPRCPAPELLGGPSVFLFPPKPKDTLMISRTPEVTCVVVDVSHEDPEVQFKWYVDGVEVHNAKTKPREEQYNSTFRVVSVLTVLHQDWLNGKEYKCKVSNKALPAPIEKTISKTKGQPREPQVYTLPPSREEMTKNQVSLTCLVKGFYPSDIAVEWESSGQPENNYNTTPPMLDSDGSFFLYSKLTVDKSRWQQGNIFSCSVMHEALHNRFTQKSLSLSPELQLEESCAEAQDGELDGLWTTITIFITLFLLSVCYSATVTFFKVKWIFSSVVDLKQTIIPDYRNMIGQGA",25
5,"APOH_HUMAN (protein, UniProt P02749 20-345, looked up) Beta-2-glycoprotein 1: GRTCPKPDDLPFSTVVPLKTFYEPGEEITYSCKPGYVSRGGMRKFICPLTGLWPINTLKCTPRVCPFAGILENGAVRYTTFEYPNTISFSCNTGFYLNGADSAKCTEEGKWSPELPVCAPIICPPPSIPTFATLRVYKPSAGNNSLYRDTAVFECLPQHAMFGNDTITCTTHGNWTKLPECREVKCPFPSRPDNGFVNYPAKPTLYYKDKATFGCHDGYSLDGPEEIECTKLGNWSAMPSCKASCKVPVKKATVVYQGERVKIQEKFKNGMLHGDKVSFFCKNKEKKCSYTEDAQCIDGTIEVPKCFKEHSSLAFWKTDASDVKPC",22
6,"ITIH2_HUMAN (+1) (protein, UniProt P19823 55-702, looked up) Inter-alpha-trypsin inhibitor …: SLPGESEEMMEEVDQVTLYSYKVQSTITSRMATTMIQSKVVNNSPQPQNVVFDVQIPKGAFISNFSMTVDGKTFRSSIKEKTVGRALYAQARAKGKTAGLVRSSALDMENFRTEVNVLPGAKVQFELHYQEVKWRKLGSYEHRIYLQPGRLAKHLEVDVWVIEPQGLRFLHVPDTFEGHFDGVPVISKGQQKAHVSFKPTVAQQRICPNCRETAVDGELVVLYDVKREEKAGELEVFNGYFVHFFAPDNLDPIPKNILFVIDVSGSMWGVKMKQTVEAMKTILDDLRAEDHFSVIDFNQNIRTWRNDLISATKTQVADAKRYIEKIQPSGGTNINEALLRAIFILNEANNLGLLDPNSVSLIILVSDGDPTVGELKLSKIQKNVKENIQDNISLFSLGMGFDVDYDFLKRLSNENHGIAQRIYGNQDTSSQLKKFYNQVSTPLLRNVQFNYPHTSVTDVTQNNFHNYFGGSEIVVAGKFDPAKLDQIESVITATSANTQLVLETLAQMDDLQDFLSKDKHADPDFTRKLWAYLTINQLLAERSLAPTAAAKRRITRSILQMSLDHHIVTPLTSLVIENEAGDERMLADAPPQDPSCCSGALYYGSKVVPDSTPSWANPSPTPVISMLAQGSQVLESTPPPHVMRVEND",24
7,"PZP_HUMAN (protein, UniProt P20742 26-1482, looked up) Pregnancy zone protein: TEPQYMVLVPSLLHTEAPKKGCVLLSHLNETVTVSASLESGRENRSLFTDLVAEKDLFHCVSFTLPRISASSEVAFLSIQIKGPTQDFRKRNTVLVLNTQSLVFVQTDKPMYKPGQTVRFRVVSVDENFRPRNELIPLIYLENPRRNRIAQWQSLKLEAGINQLSFPLSSEPIQGSYRVVVQTESGGRIQHPFTVEEFVLPKFEVKVQVPKIISIMDEKVNITVCGEYTYGKPVPGLATVSLCRKLSRVLNCDKQEVCEEFSQQLNSNGCITQQVHTKMLQITNTGFEMKLRVEARIREEGTDLEVTANRISEITNIVSKLKFVKVDSHFRQGIPFFAQVLLVDGKGVPIPNKLFFISVNDANYYSNATTNEQGLAQFSINTTSISVNKLFVRVFTVHPNLCFHYSWVAEDHQGAQHTANRVFSLSGSYIHLEPVAGTLPCGHTETITAHYTLNRQAMGELSELSFHYLIMAKGVIVRSGTHTLPVESGDMKGSFALSFPVESDVAPIARMFIFAILPDGEVVGDSEKFEIENCLANKVDLSFSPAQSPPASHAHLQVAAAPQSLCALRAVDQSVLLMKPEAELSVSSVYNLLTVKDLTNFPDNVDQQEEEQGHCPRPFFIHNGAIYVPLSSNEADIYSFLKGMGLKVFTNSKIRKPKSCSVIPSVSAGAVGQGYYGAGLGVVERPYVPQLGTYNVIPLNNEQSSGPVPETVRSYFPETWIWELVAVNSSGVAEVGVTVPDTITEWKAGAFCLSEDAGLGISSTASLRAFQPFFVELTMPYSVIRGEVFTLKATVLNYLPKCIRVSVQLKASPAFLASQNTKGEESYCICGNERQTLSWTVTPKTLGNVNFSVSAEAMQSLELCGNEVVEVPEIKRKDTVIKTLLVEAEGIEQEKTFSSMTCASGANVSEQLSLKLPSNVVKESARASFSVLGDILGSAMQNIQNLLQMPYGCGEQNMVLFAPNIYVLNYLNETQQLTQEIKAKAVGYLITGYQRQLNYKHQDGSYSTFGERYGRNQGNTWLTAFVLKTFAQARSYIFIDEAHITQSLTWLSQMQKDNGCFRSSGSLLNNAIKGGVEDEATLSAYVTIALLEIPLPVTNPIVRNALFCLESAWNVAKEGTHGSHVYTKALLAYAFSLLGKQNQNREILNSLDKEAVKEDNLVHWERPQRPKAPVGHLYQTQAPSAEVEMTSYVLLAYLTAQPAPTSGDLTSATNIVKWIMKQQNAQGGFSSTQDTVVALHALSRYGAATFTRTEKTAQVTVQDSQTFSTNFQVDNNNLLLLQQISLPELPGEYVITVTGERCVYLQTSMKYNILPEKEDSPFALKVQTVPQTCDGHKAHTSFQISLTISYTGNRPASNMVIVDVKMVSGFIPLKPTVKMLERSSSVSRTEVSNNHVLIYVEQVTNQTLSFSFMVLQDIPVGDLKPAIVKVYDYYETDESVVAEYIAPCSTDTEHGNV",11
